Reference: PMC4028107, “Adenosine deaminase activity modulation by some street drug: molecular docking simulation and experimental investigation” (DARU Journal of Pharmaceutical Sciences, 2014)

Target: T1, adenosine deaminase (Bos taurus, UniProt P56658)
T1 construct: Adenosine deaminase (EC 3.5.4.4) extracted from bovine spleen; purchased sigma; host or cells: bovine spleen (tissue extract)
T1 sequence (P56658 1-363): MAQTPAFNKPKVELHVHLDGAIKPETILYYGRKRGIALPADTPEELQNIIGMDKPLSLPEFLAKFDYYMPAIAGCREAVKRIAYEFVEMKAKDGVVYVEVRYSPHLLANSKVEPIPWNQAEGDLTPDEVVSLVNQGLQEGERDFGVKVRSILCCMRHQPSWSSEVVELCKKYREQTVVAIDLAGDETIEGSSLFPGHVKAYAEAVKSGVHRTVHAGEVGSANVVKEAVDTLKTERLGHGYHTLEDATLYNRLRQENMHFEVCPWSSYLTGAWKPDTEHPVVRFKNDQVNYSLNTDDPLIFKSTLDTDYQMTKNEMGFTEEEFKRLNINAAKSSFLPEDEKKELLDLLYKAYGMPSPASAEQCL
Test: Fluorescence spectroscopy of ADA (Trp emission)
Type: binding, bovine
Conditions: excitation 290 nm, emission 300-400 nm, pH 7.4, enzyme 6 μM, compounds 1.7 to 73.4 μM
Experimental: Fluorescence spectroscopy was performed on a Hitachi fluorescence spectrophotometer model MPF-4 with 1 cm path length fluorescence cuvette and final volume of 400 μL. The excitation wavelength was adjusted in 290 nm, and the emission was scanned every 1 nm in the range of 300 to 400 nm. The final concentration of enzyme was 6 μM and different concentrations of tested compounds were changed from 1.7 to 73.4 μM.

CN1CC[C@]23c4c5ccc(O)c4O[C@H]2[C@@H](O)C=C[C@H]3[C@H]1C5 [Morphine]
change in fluorescence spectra of ADA: do not show noticeable change and shift
